Experimental data as given in the supplement of paper PMC10849652.
Some of the results follow.

By UniProt entry, the sequences of proteins in these tests, tags left out. Where a name states a change or a piece, a line headed by the entry shows the natural chain unless it says otherwise.
UniProt Q9Y281, whole entry, looked up: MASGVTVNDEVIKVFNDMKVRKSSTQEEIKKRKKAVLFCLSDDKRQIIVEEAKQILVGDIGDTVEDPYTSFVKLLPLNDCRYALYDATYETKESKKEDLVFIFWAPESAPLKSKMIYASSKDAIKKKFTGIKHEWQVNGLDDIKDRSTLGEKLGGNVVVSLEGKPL
UniProt Q9C0F1: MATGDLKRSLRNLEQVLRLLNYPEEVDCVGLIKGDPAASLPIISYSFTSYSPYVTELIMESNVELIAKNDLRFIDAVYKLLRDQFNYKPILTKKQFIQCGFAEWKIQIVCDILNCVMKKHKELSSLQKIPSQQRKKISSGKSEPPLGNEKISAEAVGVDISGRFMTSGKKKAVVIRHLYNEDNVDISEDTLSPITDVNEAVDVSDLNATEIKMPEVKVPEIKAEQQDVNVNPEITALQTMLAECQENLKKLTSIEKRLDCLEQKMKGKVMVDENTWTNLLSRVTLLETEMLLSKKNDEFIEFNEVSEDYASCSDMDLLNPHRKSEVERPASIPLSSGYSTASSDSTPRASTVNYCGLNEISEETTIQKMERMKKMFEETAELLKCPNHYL
UniProt P60953, whole entry, looked up: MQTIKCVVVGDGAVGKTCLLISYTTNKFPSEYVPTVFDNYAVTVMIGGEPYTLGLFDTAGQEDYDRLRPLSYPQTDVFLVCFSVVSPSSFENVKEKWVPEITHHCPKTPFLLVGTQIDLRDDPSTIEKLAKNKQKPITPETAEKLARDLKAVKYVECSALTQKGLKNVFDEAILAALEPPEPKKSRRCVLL
UniProt Q6ZTR5: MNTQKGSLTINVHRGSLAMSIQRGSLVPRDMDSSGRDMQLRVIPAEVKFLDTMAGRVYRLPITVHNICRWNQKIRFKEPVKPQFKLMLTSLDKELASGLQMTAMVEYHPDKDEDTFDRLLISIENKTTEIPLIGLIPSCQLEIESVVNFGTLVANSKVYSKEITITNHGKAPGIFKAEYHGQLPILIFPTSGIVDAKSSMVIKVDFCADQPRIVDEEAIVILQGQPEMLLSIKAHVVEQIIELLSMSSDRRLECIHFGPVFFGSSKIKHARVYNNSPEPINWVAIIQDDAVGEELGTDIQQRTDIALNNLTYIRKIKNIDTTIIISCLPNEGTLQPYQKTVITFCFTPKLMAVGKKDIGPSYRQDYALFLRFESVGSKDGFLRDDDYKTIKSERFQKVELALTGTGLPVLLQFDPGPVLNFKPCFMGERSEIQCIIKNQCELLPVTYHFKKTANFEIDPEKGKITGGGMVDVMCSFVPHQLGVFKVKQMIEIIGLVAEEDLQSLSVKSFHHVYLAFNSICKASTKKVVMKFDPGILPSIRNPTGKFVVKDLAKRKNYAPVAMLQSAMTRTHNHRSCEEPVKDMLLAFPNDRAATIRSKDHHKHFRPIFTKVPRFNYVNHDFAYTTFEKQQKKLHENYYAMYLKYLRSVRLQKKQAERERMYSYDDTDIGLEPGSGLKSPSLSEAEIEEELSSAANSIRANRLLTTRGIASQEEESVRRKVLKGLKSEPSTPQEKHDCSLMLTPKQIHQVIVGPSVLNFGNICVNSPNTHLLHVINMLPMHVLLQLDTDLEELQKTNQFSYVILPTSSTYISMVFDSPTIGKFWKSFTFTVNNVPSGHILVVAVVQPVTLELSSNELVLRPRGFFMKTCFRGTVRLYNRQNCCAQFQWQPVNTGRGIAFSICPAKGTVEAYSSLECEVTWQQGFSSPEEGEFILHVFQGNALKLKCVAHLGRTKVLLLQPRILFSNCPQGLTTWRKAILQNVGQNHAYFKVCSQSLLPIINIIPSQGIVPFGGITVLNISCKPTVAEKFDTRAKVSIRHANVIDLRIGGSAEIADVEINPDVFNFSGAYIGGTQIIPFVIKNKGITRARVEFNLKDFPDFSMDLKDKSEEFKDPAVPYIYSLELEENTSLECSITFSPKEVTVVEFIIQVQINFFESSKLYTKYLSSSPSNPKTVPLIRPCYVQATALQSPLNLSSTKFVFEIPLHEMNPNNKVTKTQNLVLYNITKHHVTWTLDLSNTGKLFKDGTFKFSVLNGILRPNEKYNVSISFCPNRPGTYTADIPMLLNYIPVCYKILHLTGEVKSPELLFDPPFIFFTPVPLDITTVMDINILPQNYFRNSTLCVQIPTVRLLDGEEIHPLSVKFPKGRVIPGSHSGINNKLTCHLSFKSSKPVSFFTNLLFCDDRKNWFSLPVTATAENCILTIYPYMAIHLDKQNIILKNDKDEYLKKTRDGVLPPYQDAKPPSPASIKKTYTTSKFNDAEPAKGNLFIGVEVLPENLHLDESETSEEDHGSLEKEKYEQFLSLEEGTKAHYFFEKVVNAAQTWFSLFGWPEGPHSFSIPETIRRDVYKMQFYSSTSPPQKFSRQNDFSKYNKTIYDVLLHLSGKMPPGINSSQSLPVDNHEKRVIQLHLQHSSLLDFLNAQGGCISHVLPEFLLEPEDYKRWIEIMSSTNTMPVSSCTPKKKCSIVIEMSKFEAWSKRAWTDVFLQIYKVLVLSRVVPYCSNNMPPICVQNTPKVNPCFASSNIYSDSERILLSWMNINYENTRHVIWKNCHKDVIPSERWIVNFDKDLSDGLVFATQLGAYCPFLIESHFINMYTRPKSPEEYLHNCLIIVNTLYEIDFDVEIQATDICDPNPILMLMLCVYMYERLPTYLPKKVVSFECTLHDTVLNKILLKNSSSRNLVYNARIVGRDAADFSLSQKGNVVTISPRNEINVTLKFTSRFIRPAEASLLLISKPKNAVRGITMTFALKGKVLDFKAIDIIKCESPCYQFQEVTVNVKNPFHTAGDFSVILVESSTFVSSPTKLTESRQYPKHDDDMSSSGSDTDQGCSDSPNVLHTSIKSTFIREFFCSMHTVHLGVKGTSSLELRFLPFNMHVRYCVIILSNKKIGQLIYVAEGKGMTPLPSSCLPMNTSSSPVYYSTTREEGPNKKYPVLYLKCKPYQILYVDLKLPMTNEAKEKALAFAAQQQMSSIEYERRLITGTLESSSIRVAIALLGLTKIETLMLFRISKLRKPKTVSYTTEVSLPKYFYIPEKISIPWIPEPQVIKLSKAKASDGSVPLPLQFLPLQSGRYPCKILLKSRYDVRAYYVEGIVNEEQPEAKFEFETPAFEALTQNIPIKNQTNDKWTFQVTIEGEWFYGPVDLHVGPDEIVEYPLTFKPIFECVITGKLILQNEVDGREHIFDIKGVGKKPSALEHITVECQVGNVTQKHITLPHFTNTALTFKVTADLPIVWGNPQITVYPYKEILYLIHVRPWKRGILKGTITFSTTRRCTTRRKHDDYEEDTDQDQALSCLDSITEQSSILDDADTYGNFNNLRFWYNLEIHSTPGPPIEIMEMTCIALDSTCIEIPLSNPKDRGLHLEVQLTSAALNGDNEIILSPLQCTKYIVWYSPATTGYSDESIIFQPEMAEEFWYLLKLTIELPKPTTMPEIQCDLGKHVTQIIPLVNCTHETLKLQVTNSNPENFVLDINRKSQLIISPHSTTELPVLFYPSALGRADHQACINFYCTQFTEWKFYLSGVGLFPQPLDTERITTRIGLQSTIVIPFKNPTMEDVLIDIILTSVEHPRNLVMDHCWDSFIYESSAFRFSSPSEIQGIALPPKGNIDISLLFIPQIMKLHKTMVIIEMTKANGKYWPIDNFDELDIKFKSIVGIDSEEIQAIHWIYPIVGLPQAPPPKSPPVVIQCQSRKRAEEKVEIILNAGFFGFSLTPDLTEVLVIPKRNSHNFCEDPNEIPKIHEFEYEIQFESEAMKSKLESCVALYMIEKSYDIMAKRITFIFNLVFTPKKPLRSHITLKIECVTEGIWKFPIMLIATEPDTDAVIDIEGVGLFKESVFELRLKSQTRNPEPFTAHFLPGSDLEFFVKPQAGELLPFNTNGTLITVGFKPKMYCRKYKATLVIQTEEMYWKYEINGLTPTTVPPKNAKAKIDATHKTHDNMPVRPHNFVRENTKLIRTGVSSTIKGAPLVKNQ
UniProt P17676: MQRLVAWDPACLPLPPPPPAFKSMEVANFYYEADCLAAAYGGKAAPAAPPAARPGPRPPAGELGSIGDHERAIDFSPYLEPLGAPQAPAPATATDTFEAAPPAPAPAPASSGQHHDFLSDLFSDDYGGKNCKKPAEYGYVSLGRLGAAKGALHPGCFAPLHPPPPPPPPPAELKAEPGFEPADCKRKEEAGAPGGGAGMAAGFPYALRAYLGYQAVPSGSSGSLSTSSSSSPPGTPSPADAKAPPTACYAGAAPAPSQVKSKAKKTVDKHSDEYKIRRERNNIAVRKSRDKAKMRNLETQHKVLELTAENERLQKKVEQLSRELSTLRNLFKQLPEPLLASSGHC
UniProt O75956: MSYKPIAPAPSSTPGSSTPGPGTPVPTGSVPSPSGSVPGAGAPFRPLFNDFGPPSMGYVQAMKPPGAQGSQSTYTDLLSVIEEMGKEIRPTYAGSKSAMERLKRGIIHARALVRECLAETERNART
UniProt P14209: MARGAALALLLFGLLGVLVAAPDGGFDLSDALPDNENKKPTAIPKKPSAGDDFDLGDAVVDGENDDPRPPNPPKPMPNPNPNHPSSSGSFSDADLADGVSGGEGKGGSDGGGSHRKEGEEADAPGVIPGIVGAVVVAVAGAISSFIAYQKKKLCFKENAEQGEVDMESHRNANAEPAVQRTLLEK
UniProt A8MTT3: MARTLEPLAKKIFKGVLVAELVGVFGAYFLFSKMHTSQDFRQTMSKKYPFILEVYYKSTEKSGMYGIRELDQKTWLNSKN
UniProt Q53HL2: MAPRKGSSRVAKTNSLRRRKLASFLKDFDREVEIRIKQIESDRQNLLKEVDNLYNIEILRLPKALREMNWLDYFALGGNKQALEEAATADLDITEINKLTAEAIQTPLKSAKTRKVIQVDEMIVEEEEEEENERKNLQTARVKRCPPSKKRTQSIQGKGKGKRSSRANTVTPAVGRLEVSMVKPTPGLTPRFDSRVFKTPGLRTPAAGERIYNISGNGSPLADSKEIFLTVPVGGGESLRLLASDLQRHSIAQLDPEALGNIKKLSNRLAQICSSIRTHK
UniProt P46527, whole entry, looked up: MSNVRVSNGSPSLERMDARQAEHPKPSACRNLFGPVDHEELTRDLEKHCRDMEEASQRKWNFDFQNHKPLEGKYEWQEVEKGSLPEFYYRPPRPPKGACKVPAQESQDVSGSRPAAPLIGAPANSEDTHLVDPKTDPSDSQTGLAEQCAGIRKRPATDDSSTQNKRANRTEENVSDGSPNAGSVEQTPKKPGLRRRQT
UniProt Q9UHN6: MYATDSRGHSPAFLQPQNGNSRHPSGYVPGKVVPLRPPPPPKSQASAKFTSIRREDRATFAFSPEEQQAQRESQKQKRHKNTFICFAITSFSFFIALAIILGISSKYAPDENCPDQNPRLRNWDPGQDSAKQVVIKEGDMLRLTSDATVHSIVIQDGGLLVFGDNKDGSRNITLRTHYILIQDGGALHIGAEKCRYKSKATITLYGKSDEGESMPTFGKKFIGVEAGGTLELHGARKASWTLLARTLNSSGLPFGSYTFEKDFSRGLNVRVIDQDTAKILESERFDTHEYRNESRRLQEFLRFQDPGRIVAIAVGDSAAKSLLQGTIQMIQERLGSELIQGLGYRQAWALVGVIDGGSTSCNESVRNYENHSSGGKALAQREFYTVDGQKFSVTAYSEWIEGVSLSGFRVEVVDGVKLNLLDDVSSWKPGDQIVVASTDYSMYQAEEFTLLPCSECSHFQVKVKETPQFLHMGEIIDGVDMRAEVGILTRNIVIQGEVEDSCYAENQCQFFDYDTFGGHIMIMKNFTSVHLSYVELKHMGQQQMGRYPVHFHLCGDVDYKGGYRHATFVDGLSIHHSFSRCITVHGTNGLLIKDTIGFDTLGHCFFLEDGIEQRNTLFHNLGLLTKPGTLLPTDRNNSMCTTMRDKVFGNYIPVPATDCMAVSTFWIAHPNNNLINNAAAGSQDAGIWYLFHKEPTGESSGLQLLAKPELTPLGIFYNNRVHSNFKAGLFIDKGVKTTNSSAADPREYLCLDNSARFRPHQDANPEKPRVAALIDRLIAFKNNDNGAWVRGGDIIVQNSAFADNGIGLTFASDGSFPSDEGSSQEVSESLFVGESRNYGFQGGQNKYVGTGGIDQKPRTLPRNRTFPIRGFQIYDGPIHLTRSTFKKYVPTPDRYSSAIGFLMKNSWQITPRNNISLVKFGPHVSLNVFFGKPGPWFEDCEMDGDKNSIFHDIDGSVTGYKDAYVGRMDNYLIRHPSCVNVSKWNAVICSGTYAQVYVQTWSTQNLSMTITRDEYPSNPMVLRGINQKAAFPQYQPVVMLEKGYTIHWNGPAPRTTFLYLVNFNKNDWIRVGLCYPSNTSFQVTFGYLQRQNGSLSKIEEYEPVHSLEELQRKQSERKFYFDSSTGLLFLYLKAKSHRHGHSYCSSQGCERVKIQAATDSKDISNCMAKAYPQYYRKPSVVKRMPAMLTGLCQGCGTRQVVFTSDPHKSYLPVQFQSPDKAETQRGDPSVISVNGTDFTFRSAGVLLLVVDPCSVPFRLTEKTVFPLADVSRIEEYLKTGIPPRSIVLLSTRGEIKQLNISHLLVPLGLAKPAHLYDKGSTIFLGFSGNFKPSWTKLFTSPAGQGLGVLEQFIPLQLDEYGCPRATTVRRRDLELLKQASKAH

Columns and labels:
Assay in all cases: log2 fold change, soluble protein after heating vs DMSO (PISA); higher = thermal stabilisation; K562 lysate, 10 uM; active = over 0.2 and 3.5 SD of the protein, either way, in both replicates (recomputed)
[1] = compound: C=CC(=O)N1CCC[C@@H](n2nc(-c3ccc(Oc4ccccc4)cc3)c3c(N)ncnc32)C1 [ibrutinib]
Procedure, shortened: (§1)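 A 30 min treatment with 10 μM compound was applied to crude K562 extract at 1 mg/mL protein in PBS pH 7.4 with 1 mM MgCl2. Heating for 3 min spanned 48°C-58°C, after which aliquots were pooled, adjusted to 0.5% NP-40 at 4°C and spun at 21,000xg for 90 min. TMTpro 16plex LC-MS/MS of the supernatant, with channel sums equalised, gave values recorded as log-two fold change in thermal stability against solvent controls, from duplicates.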

[2] = compound: CC(=O)c1cnc2ccc(-c3cc(Cl)c(O)c(Cl)c3)nc2c1N[C@H]1CC[C@H](CN(C)C)CC1
Procedure, shortened: as §1

[3] = compound: CC(C)(C)Cn1c(N)nc2ccc(-c3[nH]c(C(C)(C)C)nc3-c3ccc(F)cc3)nc21 [ralimetinib]
Procedure, shortened: as §1

[4] = compound: CC(C)(O)CC(=O)NCCn1ccc2ncnc(Nc3ccc(Oc4cccc(C(F)(F)F)c4)c(Cl)c3)c21
Procedure, shortened: as §1

[5] = compound: CC(C)C1=C2N=C(C=C(N2N=C1)NCC3=CC=CC=C3)NCCCCCCN
Procedure, shortened: as §1

[6] = compound: CC1=C(C(CC(=O)N1)C2=CC=C(C=C2)C(F)(F)F)C(=O)NC3=C(C=C4C(=C3)C=NN4)F
Procedure, shortened: as §1

[7] = compound: CC1=C(C2=C(C=C1)C(=O)C3=CC=CC=C3N2CCCN)C
Procedure, shortened: as §1

[8] = compound: CC1=C(C=C(C=C1)NC(=O)C2=CC(=CC=C2)C(C)(C)C#N)NC3=CC4=C(C=C3)N=CN(C4=O)C
Procedure, shortened: as §1

[9] = compound: CC1=C(C=C(C=C1)NC(=O)C2=CC(=CC=C2)N(C)C)NC(=O)C3=CC=C(C=C3)O
Procedure, shortened: as §1

[10] = compound: CC1=CC=C(C=C1)SC2=C3C=C(SC3=CN=C2)C(=O)N
Procedure, shortened: as §1

Row | Target | log2 fold change [1] | log2 fold change [2] | log2 fold change [3] | log2 fold change [4] | log2 fold change [5] | log2 fold change [6] | log2 fold change [7] | log2 fold change [8] | log2 fold change [9] | log2 fold change [10]
1 | CFL2 (UniProt Q9Y281) | inactive: 0 | inactive: -0.016 | inactive: 0.009 | inactive: -0.084 | inactive: -0.013 | inactive: 0.005 | inactive: -0.135 | inactive: 0.007 | inactive: 0.03 | inactive: -0.021
2 | CENPS (UniProt Q8N2Z9) | inactive: -0.114 | inactive: -0.064 | inactive: -0.002 | inactive: -0.071 | inactive: -0.019 | inactive: -0.197 | inactive: 0.004 | inactive: 0.06 | inactive: 0.017 | inactive: -0.069
3 | CEP44 (UniProt Q9C0F1) | inactive: 0.038 | inactive: -0.05 | inactive: 0.031 | inactive: -0.039 | inactive: -0.037 | inactive: -0.009 | inactive: -0.008 | inactive: -0.026 | inactive: 0.054 | inactive: -0.02
4 | CDK5 (UniProt Q00535) | inactive: 0.015 | active: 0.53 | inactive: 0.004 | inactive: -0.023 | inactive: -0.032 | inactive: -0.034 | inactive: -0.006 | inactive: -0.052 | inactive: 0.023 | inactive: -0.058
5 | CDC42 (UniProt P60953) | inactive: 0.04 | inactive: 0 | inactive: -0.031 | inactive: 0.018 | inactive: 0.044 | inactive: -0.014 | inactive: -0.045 | inactive: 0.008 | inactive: -0.029 | inactive: 0.007
6 | CDK5RAP2 (UniProt Q96SN8) | inactive: -0.022 | active: 0.268 | inactive: -0.006 | inactive: 0.01 | inactive: -0.019 | inactive: -0.001 | inactive: -0.044 | inactive: -0.007 | inactive: 0.003 | inactive: 0.067
7 | CENPK (UniProt Q9BS16) | inactive: 0.024 | inactive: 0.09 | inactive: -0.003 | inactive: -0.004 | inactive: 0.004 | inactive: 0.018 | inactive: -0.011 | inactive: -0.047 | inactive: 0.051 | inactive: -0.112
8 | CDKN2AIP (UniProt Q9NXV6) | inactive: -0.003 | inactive: -0.038 | inactive: -0.013 | inactive: 0.029 | inactive: -0.04 | inactive: -0.009 | inactive: 0.03 | inactive: 0.004 | inactive: -0.019 | inactive: -0.009
9 | CEP170 (UniProt Q5SW79) | inactive: 0 | inactive: 0.004 | inactive: 0.026 | inactive: -0.002 | inactive: 0.033 | inactive: 0.001 | inactive: -0.048 | inactive: 0.017 | inactive: 0.033 | inactive: 0.003
10 | CEP152 (UniProt O94986) | inactive: -0.077 | – | inactive: 0.144 | inactive: -0.092 | inactive: -0.062 | inactive: -0.04 | inactive: -0.071 | inactive: 0.095 | inactive: -0.067 | –
11 | CDK17 isoform 2 (UniProt Q00537) | inactive: -0.029 | – | inactive: -0.019 | inactive: -0.003 | inactive: -0.037 | inactive: -0.162 | inactive: -0.08 | inactive: 0.029 | inactive: 0.057 | –
12 | CFAP47 (UniProt Q6ZTR5) | – | inactive: -0.024 | inactive: -0.233 | inactive: -0.251 | inactive: -0.005 | inactive: -0.167 | inactive: -0.271 | inactive: 0.292 | inactive: -0.005 | inactive: -0.118
13 | CEBPB (UniProt P17676) | inactive: 0.114 | – | inactive: 0.313 | inactive: 0.016 | inactive: 0.016 | – | inactive: -0.006 | inactive: 0.187 | inactive: -0.102 | –
14 | CHAC1 (UniProt Q9BUX1) | inactive: -0.207 | – | – | – | – | – | inactive: 0.152 | inactive: 0.018 | – | –
15 | CEP295 isoform 3 (UniProt Q9C0D2) | inactive: -0.182 | inactive: -0.048 | inactive: 0.005 | inactive: 0.009 | inactive: -0.019 | inactive: 0.02 | – | inactive: 0.041 | inactive: 0 | inactive: 0.053
16 | CDYL (UniProt Q9Y232) | inactive: 0.022 | inactive: 0.026 | inactive: -0.032 | inactive: -0.023 | inactive: 0.02 | inactive: 0.113 | inactive: -0.046 | inactive: -0.015 | inactive: -0.017 | inactive: -0.03

Only log2 fold change [1], log2 fold change [3] and log2 fold change [7], for some of the entries so far:
Row	Target	log2 fold change [1]	log2 fold change [3]	log2 fold change [7]
10	CEP152 (UniProt O94986)	inactive: -0.077	inactive: 0.144	inactive: -0.071
15	CEP295 isoform 3 (UniProt Q9C0D2)	inactive: -0.182	inactive: 0.005	–

(continued)

Row | Target | log2 fold change [1] | log2 fold change [2] | log2 fold change [3] | log2 fold change [4] | log2 fold change [5] | log2 fold change [6] | log2 fold change [7] | log2 fold change [8] | log2 fold change [9] | log2 fold change [10]
17 | CDK2AP2 (UniProt O75956) | inactive: 0.12 | inactive: -0.048 | – | – | inactive: 0.061 | inactive: -0.018 | inactive: -0.034 | inactive: 0.183 | – | inactive: 0.015
18 | CEP164 (UniProt Q9UPV0) | inactive: -0.075 | inactive: -0.053 | – | – | inactive: -0.216 | – | – | – | – | inactive: 0.038
19 | CENPJ (UniProt Q9HC77) | inactive: 0.007 | inactive: 0.025 | inactive: 0.008 | inactive: -0.05 | inactive: 0.025 | – | inactive: 0.032 | inactive: 0.072 | inactive: 0.009 | inactive: 0.063
20 | CD99 (UniProt P14209) | – | inactive: 0.123 | inactive: 0.058 | inactive: -0.055 | inactive: -0.011 | inactive: 0.033 | inactive: -0.096 | inactive: -0.047 | inactive: -0.07 | inactive: -0.051
21 | CEFIP (UniProt Q711Q0) | inactive: -0.052 | inactive: 0.138 | inactive: 0.018 | inactive: -0.187 | inactive: -0.098 | inactive: -0.14 | – | inactive: -0.035 | inactive: 0.046 | inactive: -0.065
22 | CEBPG (UniProt P53567) | inactive: 0.253 | inactive: 0.098 | inactive: 0.215 | inactive: 0.02 | – | – | – | inactive: 0.196 | inactive: -0.074 | inactive: -0.013
23 | CETN3 (UniProt O15182) | inactive: 0.046 | inactive: 0.02 | inactive: 0.047 | inactive: -0.095 | inactive: -0.037 | inactive: 0.019 | inactive: 0.036 | inactive: -0.102 | inactive: 0.002 | inactive: -0.012
24 | CEP57L1 (UniProt Q8IYX8) | inactive: -0.039 | – | inactive: 0.171 | inactive: -0.272 | inactive: -0.049 | inactive: 0.11 | inactive: -0.191 | inactive: -0.037 | inactive: -0.044 | –
25 | CEBPZOS (UniProt A8MTT3) | – | inactive: 0.02 | inactive: 0.035 | inactive: 0.022 | inactive: -0.047 | inactive: -0.054 | inactive: 0.04 | inactive: 0.112 | inactive: -0.032 | inactive: 0.012
26 | CDCA8 (UniProt Q53HL2) | inactive: 0.047 | – | – | – | inactive: -0.082 | inactive: 0.038 | inactive: 0.011 | – | – | –
27 | CDKN1B (UniProt P46527) | inactive: 0.141 | inactive: 0.013 | inactive: 0.037 | inactive: 0.069 | inactive: -0.037 | – | inactive: -0.053 | inactive: -0.325 | inactive: -0.019 | inactive: 0.017
28 | CDC42SE1 (UniProt Q9NRR8) | inactive: 0.019 | inactive: 0.094 | – | – | – | inactive: -0.33 | – | inactive: 0.013 | – | inactive: -0.115
29 | CEMIP2 (UniProt Q9UHN6) | inactive: -0.043 | inactive: 0.028 | inactive: -0.015 | inactive: 0.053 | inactive: -0.071 | – | inactive: 0.005 | inactive: 0.025 | inactive: -0.066 | inactive: 0.028
30 | CDT1 (UniProt Q9H211) | inactive: 0.179 | – | inactive: 0.011 | inactive: -0.079 | inactive: 0.002 | – | inactive: -0.104 | inactive: -0.011 | inactive: 0.013 | –
31 | CEP128 (UniProt Q6ZU80) | inactive: 0.166 | – | inactive: -0.06 | inactive: -0.001 | – | – | inactive: 0.078 | – | inactive: -0.03 | –
32 | CDC37 (UniProt K7EL68) | inactive: -0.179 | – | – | – | – | – | – | inactive: 0.072 | – | –
